This passage reports AC50 and max response results from PubChem BioAssay (NCATS).

Assay [1] is described as follows: qHTS assay for small molecule antagonists of androgen receptor signaling (AID 588516). To be noted: AR-UAS-bla HEK293, beta-lactamase ratio, antagonist mode, 16 h. The essentials:
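Antagonist mode: inhibition of R1881-stimulated (10 nM final) bla reporter in GeneBLAzer AR HEK 293 cells, 16 h at 37C, compounds titrated. IC50 and efficacy from Hill-equation fits of 405/460–530 nm FRET ratios.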
For orientation: Quantitative high-throughput screening tests each substance at several concentrations.

Assay [2] in a line: qHTS assay for small molecule agonists of retinoid X receptor alpha signaling (AID 588544). The following applies: HEK293T RXRa-UAS-bla, beta-lactamase reporter, 18 h; 530 nm emission.
Assay [3] is described as follows: qHTS assay for small molecule antagonists of peroxisome proliferator-activated receptor gamma signaling (AID 588537). To be noted: HEK293 PPARg-UAS-bla, beta-lactamase ratio, antagonist mode; measured here: W460 blue channel. The essentials:
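Read-out: CCF4 fluorescence (ex 405, em 460/530 nm) after 2 h at RT. Cells were HEK293 carrying a UAS-bla reporter and treated 16 h at 37 C with compound plus rosiglitazone (50 nM final). Normalized to rosiglitazone and DMSO.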

The nature of assay [4]: qHTS assay for small molecule antagonists of peroxisome proliferator-activated receptor delta signaling (AID 588535).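 Further: cells co-treated with a PPAR-delta agonist as stimulator during compound exposure.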 To be noted: HEK293T PPARd-UAS-bla, beta-lactamase FRET ratio, 18 h; 460 nm channel. The essentials:
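Beta-lactamase reporter read-out (405 nm excitation, 460/530 nm emission) after CCF4 loading for 2 hrs at RT. HEK293T PPAR-delta-UAS-bla cells, 2% charcoal/dextran FBS, compounds for 18 hrs at 37 C. Hill fit gave IC50 and efficacy.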

The nature of assay [5]: qHTS assay for small molecule antagonists of retinoid X receptor alpha signaling (AID 588546).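 Further: cells stimulated with 9-cis-retinoic acid as agonist; on the % scale 0 is the no-effect control and ±100 the full control effect.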 The following applies: HEK293T RXRa-UAS-bla, beta-lactamase ratio, antagonist mode; measured here: W530 green channel, cytotoxicity proxy. The essentials: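 Beta-lactamase reporter inhibition, read as CCF4 fluorescence ratio (ex 405, em 460/530 nm) after 2 h at RT. HEK293T UAS-bla cells, 2500/well, were stimulated with 9-cis-RA at 500 or 100 nM final alongside test compound for 18 h at 37 C.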

The nature of assay [6]: qHTS assay for small molecule antagonists of glucocorticoid receptor signaling (AID 588533). To be noted: HeLa MMTV-bla, GRE beta-lactamase ratio, antagonist mode, 18 h; measured here: W530 channel AC50.
A short description of assay [7]: qHTS assay for small molecule antagonists of vitamin D receptor signaling (AID 588541). The following applies: HEK293T VDR-UAS-bla, beta-lactamase ratio, antagonist mode; measured here: W460 blue channel (cell viability).
Where [8] appears, read: measured here: W460 blue channel fit.
The mark [9] stands for this setting: measured here: W530 green channel, cytotoxicity/artifact.

The structures appear in SMILES notation. Several values for one entry are separate records, joined by “and”; a condition that tells them apart may be missing. Equal values may be shown once. This is one part of the list. Further columns of the screen follow, without active or inactive calls. The list favours compounds with an active or inconclusive main result. For some of these results: The note in brackets gives the kind of curve behind each potency; many fits are weak.

Broadly, the AC50 is the midpoint of the concentration-response curve, whichever way the signal moves. Turning to `CC(COc1ccc(Oc2ccccc2)cc1)Oc1ccccn1` (configuration not stated), in assay [1] (setting [8]), the AC50 is 63.1 µM [falling, partial curve, poor fit]. Besides, the max response in assay [2] is 2.78% and 11.9%.
As to `CCCCCCCCOC(=O)c1ccccc1C(=O)OCCCCCCCC`, the AC50 is 0.0316 µM [falling, full curve, poor fit] in assay [1] (setting [8]) and 63.1 µM [rising, single point] in assay [3].
On to `Cc1cnc(C2=NC(C)(C(C)C)C(=O)N2)c(C(=O)O)c1` (configuration not stated), for which, in assay [1] (setting [8]), the AC50 is 11.2 µM [rising, partial curve, poor fit]. The max response in assay [4] was -1.15%; in assay [5], -10.2%.
Take `C=CC(=O)NCNC(=O)C=C`: the AC50 in assay [1] (setting [8]) was 44.7 µM [rising, single point]; in assay [3], 50.1 µM [rising, single point]. In assay [4], the max response stood at 108%.
`Cc1cc(O)c2c(c1)C(=O)c1cc(O)cc(O)c1C2=O`: the AC50 in assay [6] was 10 µM [falling, full curve, poor fit]. Moreover, in assay [4], the max response was 241% and 29.9%.
As for `ClC=CCl`, the AC50 in assay [6] is 3.16 µM [falling, partial curve, poor fit].
Take `CC[C@H]1CCCC(O[C@H]2CC[C@H](N(C)C)[C@@H](C)O2)[C@@H](C)C(=O)C2=C[C@@H]3[C@@H](C=C[C@@H]4C[C@@H](O[C@@H]5O[C@@H](C)[C@H](OC)[C@@H](OC)[C@H]5OC)C[C@@H]34)[C@@H]2CC(=O)O1` (some centres not stated): the AC50 in assay [1] (setting [9]) is 15.8 µM [rising, full curve]; in assay [7], 7.08 µM [rising, full curve, poor fit]. In addition, the max response in assay [4] was 165%; in assay [2] it was 28.1%; in assay [5] it was -0.989%.
As to `Nc1ccc([N+](=O)[O-])cc1[N+](=O)[O-]`, the AC50 in assay [1] (setting [8]) was 89.1 µM [falling, partial curve, poor fit]. For the same compound, the max response in assay [4] was -11.3%; in assay [5], -11.9%.
Take `Nc1cccc2c(N)cccc12`: the AC50 in assay [1] (setting [8]) is 0.00501 µM [falling, full curve, poor fit]. In addition, the max response in assay [4] turned out to be 80.1%.
As for `N#Cc1cc(Br)c(O)c(Br)c1`, the AC50 in assay [1] (setting [9]) is 25.1 µM [rising, partial curve]. For the same compound, the max response in assay [4] turned out to be 18.1%.
Regarding `O=[N+]([O-])c1cc(C(F)(F)F)c(Cl)c([N+](=O)[O-])c1Nc1ncc(C(F)(F)F)cc1Cl`, the AC50 in assay [6] was 28.2 µM [falling, partial curve]; in assay [7], 28.2 µM [falling, full curve, poor fit]. The max response in assay [4] was -122%; in assay [2], -46%; in assay [5], -39.4%.
As for `CCOP(=O)(OCC)OC(Cl)C(Cl)(Cl)Cl` (configuration not stated), the AC50 in assay [1] (setting [9]) is 10 µM [falling, partial curve, poor fit]; in assay [3] it was 17.8 µM [falling, partial curve, poor fit]; in assay [7], 44.7 µM [falling, single point].
For the compound `BrCC(Br)(Br)Br`, the AC50 was 25.1 µM [falling, full curve, poor fit] in assay [1] (setting [8]) and 50.1 µM [rising, single point] in assay [3]. The max response in assay [4] worked out at 2.83%.
Consider `COC(=O)N(C(=O)N1COC2(C(=O)OC)Cc3cc(Cl)ccc3C2=N1)c1ccc(OC(F)(F)F)cc1` (configuration not stated), for which the AC50 in assay [1] (setting [8]) was 50.1 µM [falling, single point]; in assay [6], 63.1 µM [falling, partial curve, poor fit]; in assay [3] it was 0.00158 µM [falling, full curve, poor fit]. Further, the results for the max response in assay [2] and in assay [5] were 7.91% and -14.6%, respectively.
In the case of `Nc1ccc([N+](=O)[O-])cc1Cl`, the half-maximal activity concentration (AC50) is 50.1 µM [falling, single point] in assay [1] (setting [8]) and 20 µM [falling, full curve, poor fit] in assay [3].
Take `CCOCn1c(-c2ccc(Cl)cc2)c(C#N)c(Br)c1C(F)(F)F`: the AC50 was 0.794 µM [falling, full curve, poor fit] in assay [6] and 3.55 µM [falling, partial curve, poor fit] in assay [3]. For the same compound, the max response in assay [4] was -1.04%; in assay [2], 25.5%.
With `Clc1ccc(C(c2ccc(Cl)cc2)C(Cl)Cl)cc1`, the AC50 was 39.8 µM [falling, partial curve, poor fit] in assay [6] and 8.91 µM [falling, full curve, poor fit] in assay [3]. Besides, the max response is -41.5% in assay [4]; -5.46% in assay [2]; -5.14% and -8.13% in assay [5].
Take `CO/C=C(/C(=O)OC)c1ccccc1Oc1cc(Oc2ccccc2C#N)ncn1`: the AC50 in assay [1] (setting [8]) was 44.7 µM [falling, partial curve, poor fit]; in assay [6], 50.1 µM [falling, partial curve, poor fit]. In addition, the max response in assay [4] was -30.5%; in assay [2] it was 24.4%; in assay [5], 6.96%.
Take `CC1(c2ccc(Oc3ccccc3)cc2)OC(=O)N(Nc2ccccc2)C1=O` (configuration not stated): the AC50 in assay [6] was 3.16 µM [rising, full curve, poor fit]; in assay [3], 35.5 µM [falling, partial curve]; in assay [7], 50.1 µM [falling, single point]. Moreover, in assay [4], the max response was -21%.
Consider `O=C(O)C(Br)Br`, for which, in assay [6], the AC50 is 28.2 µM [falling, partial curve, poor fit].
Consider `CCc1cccc(CC)c1N(COC)C(=O)CCl`, for which the AC50 in assay [1] (setting [8]) is 50.1 µM [falling, partial curve, poor fit] and 100 µM [falling, partial curve, poor fit]; in assay [3] it was 15.8 µM [falling, partial curve, poor fit] and 25.1 µM [falling, partial curve, poor fit]. Further, the max response in assay [4] is -13.4% and 92.8%; in assay [2], 34.9%; in assay [5], 24%.
